{"source": "patent US6074851A", "about": "“Catalytic macro molecules having cdc25B like activity” (Pharmacia & UpJohn Company, priority 1997, dated 2000)", "origin": "cited, not measured here", "test_system": "p35cdc25, engineered recombinant C-terminal domain of the Drosophila cdc25 protein", "conditions": "PNPP as substrate, 37° C.; cited from earlier work", "note": "At least one structure is not confirmed: it was looked up by name or label, or the drawing left a doubt."}
{"smiles": "O=[N+]([O-])c1ccc(OP(=O)(O)O)cc1", "note": "[PNPP, p-nitrophenyl phosphate]", "values": [{"measurement": "Km", "result": 50, "unit": "mM"}, {"measurement": "Vmax", "result": 56, "unit": "nmol/min/mg"}]}
